No constants are given. Whether binding was seen depends on the method and setting. For part of these data: Binding seen in cells or lysates may run through a third protein.
T1: full-length human recombinant NOX4 protein (human) (UniProt Q9NPH5)
T1 sequence: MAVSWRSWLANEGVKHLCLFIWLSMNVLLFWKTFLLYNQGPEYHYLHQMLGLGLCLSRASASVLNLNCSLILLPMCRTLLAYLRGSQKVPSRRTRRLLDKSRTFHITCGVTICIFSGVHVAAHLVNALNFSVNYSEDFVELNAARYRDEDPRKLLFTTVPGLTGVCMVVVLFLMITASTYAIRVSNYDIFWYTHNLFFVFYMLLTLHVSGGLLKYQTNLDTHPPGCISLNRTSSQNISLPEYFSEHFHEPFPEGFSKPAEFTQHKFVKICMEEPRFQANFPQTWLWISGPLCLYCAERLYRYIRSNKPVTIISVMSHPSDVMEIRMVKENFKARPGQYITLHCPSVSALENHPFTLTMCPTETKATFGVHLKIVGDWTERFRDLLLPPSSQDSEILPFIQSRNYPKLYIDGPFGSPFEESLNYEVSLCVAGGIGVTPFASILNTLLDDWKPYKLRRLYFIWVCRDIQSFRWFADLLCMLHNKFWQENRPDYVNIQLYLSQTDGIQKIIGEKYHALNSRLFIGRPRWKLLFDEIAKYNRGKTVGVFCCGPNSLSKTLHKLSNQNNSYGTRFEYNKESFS

Chains of the proteins cited; added tags and fusions are not shown.
UniProt P61589: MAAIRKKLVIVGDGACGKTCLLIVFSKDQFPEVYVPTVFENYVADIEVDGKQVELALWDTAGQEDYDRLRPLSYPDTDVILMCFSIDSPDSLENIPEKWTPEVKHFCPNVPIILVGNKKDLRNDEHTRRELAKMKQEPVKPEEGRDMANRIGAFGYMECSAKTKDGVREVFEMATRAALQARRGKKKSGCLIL
UniProt P61586: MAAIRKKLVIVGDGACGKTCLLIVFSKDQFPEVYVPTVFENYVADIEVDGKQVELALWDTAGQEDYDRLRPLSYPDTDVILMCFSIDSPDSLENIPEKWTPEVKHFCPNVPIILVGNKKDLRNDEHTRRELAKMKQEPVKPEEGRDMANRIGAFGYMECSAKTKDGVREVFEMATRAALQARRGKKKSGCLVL

B1: p67^phox (protein, UniProt A7E3N2 1-527)
chain: MSLAEAIRLWNEGVQAADKKDWKGALEAFSEVQDPHSRICFNIGCMYTILDNLQEAEQAFTKSINRDKHLAVAYFQRGMLYYSMEKYRPASVGRKAALLFLGSYNLVARIIVGYPLSPGKVLYNIALMHAKKEEWKKAEEQLALATNMKSEPRHSKIDKAMESIWKRCPTSHLPLDPPQVTMALWFEEGGVGKRSVVASVVHQDNFSGFAPLQPQSAEPPPRPKTPEIFRALEGEAHRVLFGFVPETPEELQVMPGNIVFVLKKGSDNWATVMFNGQKGLVPCNYLEPVELRIHPQSQPQEDTSLESDIPPPPNSSPPERLQLSPGWCQQLGPLRCPPFLLHQEVKRSVPMPYMLKVHYKYTVVMETQLGLPYSQLRNMVSKKLELLPEHTKLSYQRRDSPELLLLSEESMKDAWAQVKNYCLTLWCEHTVGDQGFVDEPKEKENSDADNRTTEPQPKEGTQVVAIFSYDATQPEDLEFVEGDVILVLSHVNEEWLEGECKGKIGIFPKAFVEGCAAKNLEGTPREV
B2: NOX4 in NOX4^(GV 358Lv) HSCs (protein, UniProt Q924V1 1-578)
chain: MALSWRSWLANEGVKHLCLLVWLSLNVLLFWKTFLLYNQGPEYYYIHQMLGLGLCLSRASASVLNLNCSLILLPMCRTVLAYLRGSQKVPSRRTRRLLDKSKTLHITCGITICIFSGVHVAAHLVNALNFSVNYSEHFLALNAARYQNEDPRKLLFTTVPGLTGVCMVVVLFLMVTASTYAIRVSNYDIFWYTHNLFFVFYMLLLLHVSGGLLKYQTNLDTHPPGCISLNRTPSQNMSIADYVSEHFHGSLPGGFSKLEDHYQKTLVKICLEEPKFQAHFPQTWIWISGPLCLYCAERLYRCIRSNKPVTIISVINHPSDVMELRMIKENFKARPGQYIILHCPSVSALENHPFTLTMCPTETKATFGVHFKVVGDWTERFRDLLLPPSSQDSEILPFIQSRNYPKLYIDGPFGSPFEESLNYEVSLCVAGGIGVTPFASILNTLLDDWKPYKLRRLYFIWVCRDIQSFQWFADLLYVLHNKFWQENRPDFVNIQLYLSQTDGIQKIIGEKYHTLNSRLFIGRPRWKLLFDEIAKCNRGKTVGVFCCGPSSISKTLHNLSNRNNSYGTKFEYNKESFS

Assays:
[1] = molecular target: T1, full-length human recombinant NOX4 protein (human); assay: SPR; Biacore, CM5 chip; NOX4 monoclonal antibody conjugated to the chip, full-length human NOX4 bound to the antibody, RhoA flowed at 0, 22.5, 45, 90, 180 and 360 μg/mL; regeneration with 10 mmol/L glycine pH 2.5; both purified
[2] = molecular target: RhoA (rat (endogenous in HSC-T6)) (UniProt P61589); assay: co-IP; lysate of NOX4^(GV 358Lv) HSC-T6 cells; 1 μg antibody overnight at 4°C, protein A agarose beads 4 h at 4°C, three washes with lysis buffer, western blot

binding [1]	binding [2]	Molecule
no binding (tested: 360 μg/mL)	–	full-length human recombinant RhoA protein (from UniProt P61586 1-193)
–	no binding	B1
–	no binding	B2

From publication PMC6510285
